Data published in paper doi:10.1101/2025.10.02.679945.
Results are given in words; binding and its absence hold for the method and conditions named. Binding seen in cells or lysates may run through a third protein. Binding calls can cover weak binding; strength is not graded here.

Target: Dengue virus 1 capsid-anchor protein (c-anc, 1-114aa) (Dengue virus 1 (DENV-1))
Experiment: pull-down

B1: Alpha-1 syntrophin (SNTA1) (protein, UniProt Q13424 1-505)
chain: MASGRRAPRTGLLELRAGAGSGAGGERWQRVLLSLAEDVLTVSPADGDPGPEPGAPREQEPAQLNGAAEPGAGPPQLPEALLLQRRRVTVRKADAGGLGISIKGGRENKMPILISKIFKGLAADQTEALFVGDAILSVNGEDLSSATHDEAVQVLKKTGKEVVLEVKYMKDVSPYFKNSTGGTSVGWDSPPASPLQRQPSSPGPTPRNFSEAKHMSLKMAYVSKRCTPNDPEPRYLEICSADGQDTLFLRAKDEASARSWATAIQAQVNTLTPRVKDELQALLAATSTAGSQDIKQIGWLTEQLPSGGTAPTLALLTEKELLLYLSLPETREALSRPARTAPLIATRLVHSGPSKGSVPYDAELSFALRTGTRHGVDTHLFSVESPQELAAWTRQLVDGCHRAAEGVQEVSTACTWNGRPCSLSVHIDKGFTLWAAEPGAARAVLLRQPFEKLQMSSDDGASLLFLDFGGAEGEIQLDLHSCPKTIVFIIHSFLSAKVTRLGLLA
  binding: binds
